Test results published in US20240139154A1, “Methods of Reducing Risk of Prostate Cancer Progression” (Astellas Pharma Inc., priority 2021, published 2024).
Some results come without the dose or concentration used.

Assay: ENACT study: health-related quality of life, patient-reported outcomes (BFI, EPIC, SF-12, MAX-PC)
Format: in vivo, human

CNC(=O)c1ccc(N2C(=S)N(c3ccc(C#N)c(C(F)(F)F)c3)C(=O)C2(C)C)cc1F [enzalutamide, Enzalutamide]
EPIC sexual function score (6 months): 33.4±22.2 | BFI, mean (Month 12): 2.5 | EPIC hormonal, mean (Month 12): 57.7 | EPIC sexual, mean (Month 12): 30.2 | EPIC urinary, mean (Month 12): 85.2 | MAX-PC, mean (Month 12): 16.5 | SF-12 mental, mean (Month 12): 52.0 | SF-12 physical, mean (Month 12): 49.4 | BFI, mean (Month 24): 1.6 | EPIC hormonal, mean (Month 24): 57.9 | EPIC sexual, mean (Month 24): 47.7 | EPIC urinary, mean (Month 24): 88.3 | MAX-PC, mean (Month 24): 16.3 | SF-12 mental, mean (Month 24): 54.4 | SF-12 physical, mean (Month 24): 51.0
